Counter-ions that a name gives are not always drawn. The list shows a part of the results. Hit calls seldom repeat between salt and free forms of one compound.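 Kinases were expressed as nanoluciferase fusions in K562 cells and luminescence was read every 4 h between 2 and 18 h as percent of control, DMSO set to 100% and a positive control to 0%. A time point counts as decreased when the signal drops significantly (2 sigma). The hit call is the authors' own, does not follow from the count of time points alone, and its rule is not shown.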
Experiments:
Experiment in all cases: kinase-Nluc reporter destabilization hit call (1 = scored as downregulated) (binary); higher = compound decreases kinase abundance
Conditions in all cases: K562; 2-18 h
EGFR = EGFR (UniProt P00533)
EGFR_G719S = EGFR_G719S (UniProt P00533)
EGFR_G719S_T790M = EGFR_G719S_T790M (UniProt P00533)
EGFR_L718V = EGFR_L718V (UniProt P00533)
EGFR_L858R = EGFR_L858R (UniProt P00533)
EGFR_L861Q = EGFR_L861Q (UniProt P00533)
EGFR_T790M = EGFR_T790M (UniProt P00533)
EPHA2 = EPHA2 (UniProt P29317)
ERBB3 = ERBB3 (UniProt P21860)
[1] = target: ERBB4_R711C (clone: ERBB4_mut) (UniProt Q15303)
ERN1 = ERN1 (UniProt O75460)
FGFR1 = FGFR1 (UniProt P11362)
FGFR2 = FGFR2 (UniProt P21802)
FGFR3 = FGFR3 (UniProt P22607)
FGR = FGR (UniProt P09769)
FLT3 = FLT3 (UniProt P36888)
FYN = FYN (UniProt P06241)
GSK3A = GSK3A (UniProt P49840)
HER2 = HER2 (UniProt P04626)
INSRR = INSRR (UniProt P14616)

By UniProt entry, the sequences of proteins in these tests, tags left out. Where a name states a change or a piece, a line headed by the entry shows the natural chain unless it says otherwise.
UniProt P29317, whole entry: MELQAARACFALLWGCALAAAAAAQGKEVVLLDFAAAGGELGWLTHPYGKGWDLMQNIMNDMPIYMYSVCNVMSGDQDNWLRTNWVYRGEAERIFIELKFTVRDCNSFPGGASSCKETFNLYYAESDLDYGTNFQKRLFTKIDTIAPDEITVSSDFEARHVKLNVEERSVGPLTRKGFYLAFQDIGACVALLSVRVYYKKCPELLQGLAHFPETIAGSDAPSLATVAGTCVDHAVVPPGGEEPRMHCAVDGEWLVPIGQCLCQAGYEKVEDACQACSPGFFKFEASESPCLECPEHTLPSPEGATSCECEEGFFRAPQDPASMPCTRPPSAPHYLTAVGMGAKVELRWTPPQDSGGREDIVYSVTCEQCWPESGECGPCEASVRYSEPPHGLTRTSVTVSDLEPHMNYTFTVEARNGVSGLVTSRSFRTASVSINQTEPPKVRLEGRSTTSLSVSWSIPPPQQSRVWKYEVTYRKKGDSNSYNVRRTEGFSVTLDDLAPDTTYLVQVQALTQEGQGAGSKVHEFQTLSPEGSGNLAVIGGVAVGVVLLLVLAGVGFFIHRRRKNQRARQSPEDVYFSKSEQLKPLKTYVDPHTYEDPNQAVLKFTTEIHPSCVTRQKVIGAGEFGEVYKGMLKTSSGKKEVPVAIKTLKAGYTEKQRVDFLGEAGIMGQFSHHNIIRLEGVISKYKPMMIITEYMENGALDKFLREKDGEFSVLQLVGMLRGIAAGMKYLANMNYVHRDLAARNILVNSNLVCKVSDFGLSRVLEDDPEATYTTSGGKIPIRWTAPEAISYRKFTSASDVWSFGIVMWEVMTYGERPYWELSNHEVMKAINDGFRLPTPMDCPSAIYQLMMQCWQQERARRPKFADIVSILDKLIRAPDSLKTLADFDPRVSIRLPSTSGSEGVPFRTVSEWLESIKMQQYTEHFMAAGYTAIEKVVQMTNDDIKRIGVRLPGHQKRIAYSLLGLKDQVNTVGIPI
UniProt P21860, whole entry: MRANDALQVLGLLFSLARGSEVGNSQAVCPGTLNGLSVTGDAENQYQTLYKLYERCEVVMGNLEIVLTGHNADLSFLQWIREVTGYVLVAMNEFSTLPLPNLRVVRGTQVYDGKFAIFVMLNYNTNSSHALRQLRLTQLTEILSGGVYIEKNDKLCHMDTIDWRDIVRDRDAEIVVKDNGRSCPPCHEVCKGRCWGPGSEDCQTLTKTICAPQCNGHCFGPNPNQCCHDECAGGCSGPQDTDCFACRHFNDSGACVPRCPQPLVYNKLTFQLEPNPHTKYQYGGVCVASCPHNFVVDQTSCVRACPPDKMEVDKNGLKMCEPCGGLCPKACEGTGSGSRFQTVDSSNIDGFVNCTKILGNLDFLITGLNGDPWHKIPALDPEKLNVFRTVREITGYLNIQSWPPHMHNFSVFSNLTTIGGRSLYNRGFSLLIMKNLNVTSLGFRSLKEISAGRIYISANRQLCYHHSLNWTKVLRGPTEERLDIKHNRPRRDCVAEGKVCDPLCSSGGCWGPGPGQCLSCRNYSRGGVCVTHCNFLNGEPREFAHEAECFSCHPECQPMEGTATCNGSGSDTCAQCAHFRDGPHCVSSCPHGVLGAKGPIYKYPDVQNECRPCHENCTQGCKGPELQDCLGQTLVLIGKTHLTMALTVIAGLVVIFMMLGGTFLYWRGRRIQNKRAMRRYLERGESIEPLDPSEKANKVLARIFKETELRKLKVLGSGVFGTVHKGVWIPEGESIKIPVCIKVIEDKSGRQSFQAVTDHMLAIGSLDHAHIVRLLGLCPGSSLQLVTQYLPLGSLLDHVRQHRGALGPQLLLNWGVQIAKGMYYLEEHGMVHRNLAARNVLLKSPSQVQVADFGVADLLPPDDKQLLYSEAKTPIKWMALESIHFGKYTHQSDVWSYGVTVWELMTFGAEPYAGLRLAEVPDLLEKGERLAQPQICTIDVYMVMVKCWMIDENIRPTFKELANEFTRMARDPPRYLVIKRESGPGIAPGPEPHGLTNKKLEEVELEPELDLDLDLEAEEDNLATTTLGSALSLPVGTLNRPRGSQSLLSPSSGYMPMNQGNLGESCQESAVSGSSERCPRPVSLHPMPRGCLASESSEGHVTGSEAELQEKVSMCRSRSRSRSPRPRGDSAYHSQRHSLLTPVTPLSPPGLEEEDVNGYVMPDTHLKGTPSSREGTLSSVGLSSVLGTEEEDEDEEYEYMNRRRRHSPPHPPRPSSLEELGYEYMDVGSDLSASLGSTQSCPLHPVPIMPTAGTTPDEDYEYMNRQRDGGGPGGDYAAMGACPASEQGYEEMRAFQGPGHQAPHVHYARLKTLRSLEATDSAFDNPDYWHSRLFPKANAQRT
UniProt O75460: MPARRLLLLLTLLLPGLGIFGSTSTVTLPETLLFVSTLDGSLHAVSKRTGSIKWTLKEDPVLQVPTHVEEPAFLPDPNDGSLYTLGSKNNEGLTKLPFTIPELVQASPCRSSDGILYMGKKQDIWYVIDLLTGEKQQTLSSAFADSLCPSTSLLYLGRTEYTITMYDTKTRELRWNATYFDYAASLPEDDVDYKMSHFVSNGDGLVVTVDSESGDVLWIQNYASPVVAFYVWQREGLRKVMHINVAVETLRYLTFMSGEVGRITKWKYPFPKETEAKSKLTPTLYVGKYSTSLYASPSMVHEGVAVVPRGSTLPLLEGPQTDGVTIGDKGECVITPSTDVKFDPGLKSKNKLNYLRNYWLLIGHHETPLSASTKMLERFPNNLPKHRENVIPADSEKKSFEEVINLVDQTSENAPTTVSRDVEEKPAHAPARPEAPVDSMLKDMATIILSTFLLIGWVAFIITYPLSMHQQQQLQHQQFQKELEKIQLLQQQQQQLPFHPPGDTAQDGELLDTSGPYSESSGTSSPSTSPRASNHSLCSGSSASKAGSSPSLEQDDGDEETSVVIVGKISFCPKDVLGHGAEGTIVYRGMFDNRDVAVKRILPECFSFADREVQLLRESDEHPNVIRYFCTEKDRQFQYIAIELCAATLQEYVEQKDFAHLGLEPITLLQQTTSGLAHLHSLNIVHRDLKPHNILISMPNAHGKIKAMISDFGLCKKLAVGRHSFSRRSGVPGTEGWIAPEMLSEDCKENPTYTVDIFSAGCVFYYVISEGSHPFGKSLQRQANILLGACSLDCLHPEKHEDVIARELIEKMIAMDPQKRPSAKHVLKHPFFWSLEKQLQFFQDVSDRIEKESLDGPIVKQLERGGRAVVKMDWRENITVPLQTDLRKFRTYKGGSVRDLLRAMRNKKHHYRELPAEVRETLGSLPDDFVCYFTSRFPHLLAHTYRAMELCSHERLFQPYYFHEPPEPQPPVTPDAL
UniProt P22607, whole entry, looked up: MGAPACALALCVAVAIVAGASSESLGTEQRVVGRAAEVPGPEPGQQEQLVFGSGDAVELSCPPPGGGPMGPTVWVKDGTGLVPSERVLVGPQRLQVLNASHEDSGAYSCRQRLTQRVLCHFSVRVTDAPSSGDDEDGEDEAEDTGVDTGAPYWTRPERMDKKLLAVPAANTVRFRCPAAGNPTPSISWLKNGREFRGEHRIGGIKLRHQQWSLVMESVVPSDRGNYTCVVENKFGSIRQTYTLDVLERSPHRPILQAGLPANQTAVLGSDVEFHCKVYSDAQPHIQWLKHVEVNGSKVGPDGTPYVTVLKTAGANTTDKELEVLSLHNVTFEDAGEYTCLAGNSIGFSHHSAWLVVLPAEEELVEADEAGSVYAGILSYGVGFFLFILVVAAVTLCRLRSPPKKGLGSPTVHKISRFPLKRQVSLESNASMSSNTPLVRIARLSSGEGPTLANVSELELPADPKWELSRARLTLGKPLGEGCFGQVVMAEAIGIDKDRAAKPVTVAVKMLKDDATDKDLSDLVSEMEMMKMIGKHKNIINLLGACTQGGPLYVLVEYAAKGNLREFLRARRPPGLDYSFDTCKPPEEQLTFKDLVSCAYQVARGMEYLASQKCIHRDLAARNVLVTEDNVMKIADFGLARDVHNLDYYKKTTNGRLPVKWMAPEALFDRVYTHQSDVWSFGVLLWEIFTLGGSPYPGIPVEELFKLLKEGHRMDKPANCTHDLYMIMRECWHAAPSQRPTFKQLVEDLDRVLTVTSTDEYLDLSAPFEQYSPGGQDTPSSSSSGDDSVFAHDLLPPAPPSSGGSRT
UniProt P36888, whole entry: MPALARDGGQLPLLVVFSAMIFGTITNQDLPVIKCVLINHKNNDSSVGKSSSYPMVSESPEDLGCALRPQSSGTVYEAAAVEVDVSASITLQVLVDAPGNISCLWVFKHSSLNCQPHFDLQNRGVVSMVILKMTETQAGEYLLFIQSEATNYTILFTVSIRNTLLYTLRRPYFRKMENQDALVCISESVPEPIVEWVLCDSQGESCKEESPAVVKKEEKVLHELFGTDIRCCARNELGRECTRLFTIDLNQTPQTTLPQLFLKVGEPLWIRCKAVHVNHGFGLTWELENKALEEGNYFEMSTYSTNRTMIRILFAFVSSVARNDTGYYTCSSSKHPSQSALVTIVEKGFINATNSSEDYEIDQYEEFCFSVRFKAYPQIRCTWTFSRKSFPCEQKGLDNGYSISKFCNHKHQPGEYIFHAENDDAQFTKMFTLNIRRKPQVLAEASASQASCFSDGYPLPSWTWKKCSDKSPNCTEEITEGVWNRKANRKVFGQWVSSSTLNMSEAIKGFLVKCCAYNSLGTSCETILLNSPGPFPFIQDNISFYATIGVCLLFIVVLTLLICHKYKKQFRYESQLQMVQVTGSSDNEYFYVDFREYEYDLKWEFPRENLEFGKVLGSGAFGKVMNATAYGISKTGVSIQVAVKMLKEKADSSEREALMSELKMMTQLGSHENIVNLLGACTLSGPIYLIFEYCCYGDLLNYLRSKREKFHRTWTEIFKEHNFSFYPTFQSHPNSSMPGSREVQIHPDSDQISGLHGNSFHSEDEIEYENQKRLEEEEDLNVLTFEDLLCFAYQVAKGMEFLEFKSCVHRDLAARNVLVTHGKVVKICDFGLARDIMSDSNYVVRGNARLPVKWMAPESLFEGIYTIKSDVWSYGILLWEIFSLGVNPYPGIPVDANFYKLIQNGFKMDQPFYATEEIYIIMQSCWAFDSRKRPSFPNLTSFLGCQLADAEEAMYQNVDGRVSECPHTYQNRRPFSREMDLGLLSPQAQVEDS
UniProt P06241, whole entry, looked up: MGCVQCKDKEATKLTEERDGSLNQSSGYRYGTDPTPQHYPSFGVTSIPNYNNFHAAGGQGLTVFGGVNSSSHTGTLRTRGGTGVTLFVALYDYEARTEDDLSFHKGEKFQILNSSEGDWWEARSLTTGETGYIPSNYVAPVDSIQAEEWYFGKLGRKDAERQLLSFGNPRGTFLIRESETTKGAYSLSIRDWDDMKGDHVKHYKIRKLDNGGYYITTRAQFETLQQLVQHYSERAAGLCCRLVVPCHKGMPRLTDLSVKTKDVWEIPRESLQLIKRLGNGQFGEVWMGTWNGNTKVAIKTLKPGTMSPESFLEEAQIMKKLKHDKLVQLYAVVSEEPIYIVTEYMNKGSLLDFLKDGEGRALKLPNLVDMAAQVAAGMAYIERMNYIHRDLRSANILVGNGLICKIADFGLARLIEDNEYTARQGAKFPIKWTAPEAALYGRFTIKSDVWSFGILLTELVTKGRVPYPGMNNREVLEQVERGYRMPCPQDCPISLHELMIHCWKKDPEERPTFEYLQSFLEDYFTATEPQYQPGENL
UniProt P49840: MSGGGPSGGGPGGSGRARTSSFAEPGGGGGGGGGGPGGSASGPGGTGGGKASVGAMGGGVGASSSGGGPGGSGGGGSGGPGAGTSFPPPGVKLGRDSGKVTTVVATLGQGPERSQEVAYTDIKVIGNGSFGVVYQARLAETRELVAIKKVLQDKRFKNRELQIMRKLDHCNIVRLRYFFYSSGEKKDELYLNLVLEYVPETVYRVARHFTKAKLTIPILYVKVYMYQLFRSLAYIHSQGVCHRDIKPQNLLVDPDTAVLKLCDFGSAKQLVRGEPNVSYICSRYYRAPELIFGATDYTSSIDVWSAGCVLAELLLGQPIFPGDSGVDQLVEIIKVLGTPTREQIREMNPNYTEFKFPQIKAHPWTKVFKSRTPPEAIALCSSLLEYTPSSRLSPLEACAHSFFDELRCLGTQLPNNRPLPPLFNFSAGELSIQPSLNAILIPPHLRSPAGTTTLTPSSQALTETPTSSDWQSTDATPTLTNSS

Measured: kinase-Nluc reporter destabilization hit call

NC(=O)N1CCC(CC(=O)N2CCC([C@H]3c4ncc(Br)cc4CCc4cc(Cl)cc(Br)c43)CC2)CC1 [Lonafarnib] (2.5 µM)
inactive: EGFR 0 | EGFR_G719S 0 | EGFR_G719S_T790M 0 | EGFR_L718V 0 | EGFR_L858R 0 | EGFR_L861Q 0 | EGFR_T790M 0 | EPHA2 = 0 | ERBB3 = 0 | [1] 0 | ERN1 = 0 | FGFR1 = 0 | FGFR2 = 0 | FGFR3 = 0 | FGR 0 | FLT3 = 0 | FYN 0 | GSK3A 0 | HER2 = 0 | INSRR 0

COc1cc(N(C)CCN(C)C)c(N)cc1Nc1nccc(-c2cn(C)c3ccccc23)n1 [Mutated EGFR-IN-1] (10 µM)
inactive: EGFR 0 | EGFR_G719S 0 | EGFR_G719S_T790M 0 | EGFR_L718V 0 | EGFR_L858R 0 | EGFR_L861Q 0 | EGFR_T790M 0 | EPHA2 = 0 | ERBB3 = 0 | [1] 0 | ERN1 = 0 | FGFR1 = 0 | FGFR2 = 0 | FGFR3 = 0 | FGR 0 | FLT3 = 0 | FYN 0 | GSK3A 0 | HER2 = 0 | INSRR 0

Cc1cccc(-c2[nH]c(C(C)(C)C)nc2-c2ccc3nccnc3c2)n1 (10 µM)
inactive: EGFR 0 | EGFR_G719S 0 | EGFR_G719S_T790M 0 | EGFR_L718V 0 | EGFR_L858R 0 | EGFR_L861Q 0 | EGFR_T790M 0 | EPHA2 = 0 | ERBB3 = 0 | [1] 0 | ERN1 = 0 | FGFR1 = 0 | FGFR2 = 0 | FGFR3 = 0 | FGR 0 | FLT3 = 0 | FYN 0 | GSK3A 0 | HER2 = 0 | INSRR 0

O=C(Nc1nc2ccc(NC(=O)C34CC5CC(CC(C5)C3)C4)cc2s1)c1ccccc1 (10 µM)
inactive: EGFR 0 | EGFR_G719S 0 | EGFR_G719S_T790M 0 | EGFR_L718V 0 | EGFR_L858R 0 | EGFR_L861Q 0 | EGFR_T790M 0 | EPHA2 = 0 | ERBB3 = 0 | [1] 0 | ERN1 = 0 | FGFR1 = 0 | FGFR2 = 0 | FGFR3 = 0 | FGR 0 | FLT3 = 0 | FYN 0 | GSK3A 0 | HER2 = 0 | INSRR 0

CC(=O)N1CCC(c2cc(-c3ccc(NC(=O)c4cccn(-c5ccc(F)cc5)c4=O)cc3F)c3c(N)ncnn23)CC1 (0.5 µM)
inactive: EGFR 0 | EGFR_G719S 0 | EGFR_G719S_T790M 0 | EGFR_L718V 0 | EGFR_L858R 0 | EGFR_L861Q 0 | EGFR_T790M 0 | EPHA2 = 0 | ERBB3 = 0 | [1] 0 | ERN1 = 0 | FGFR1 = 0 | FGFR2 = 0 | FGFR3 = 0 | FGR 0 | FLT3 = 0 | FYN 0 | GSK3A 0 | HER2 = 0 | INSRR 0

CC(C)=CCc1c(-c2ccc(O)cc2O)oc2c3c(cc(O)c2c1=O)OC(C)(C)C=C3 [Morusin] (2.5 µM)
inactive: EGFR 0 | EGFR_G719S 0 | EGFR_G719S_T790M 0 | EGFR_L718V 0 | EGFR_L858R 0 | EGFR_L861Q 0 | EGFR_T790M 0 | EPHA2 = 0 | ERBB3 = 0 | [1] 0 | ERN1 = 0 | FGFR1 = 0 | FGFR2 = 0 | FGFR3 = 0 | FGR 0 | FLT3 = 0 | FYN 0 | GSK3A 0 | HER2 = 0 | INSRR 0

COc1cc2ncnc(Nc3ccc(F)c(Cl)c3)c2cc1NC(=O)/C=C/CN1CCCCC1 [Dacomitinib] (10 µM)
inactive: EGFR 0 | EGFR_G719S 0 | EGFR_G719S_T790M 0 | EGFR_L718V 0 | EGFR_L858R 0 | EGFR_L861Q 0 | EGFR_T790M 0 | EPHA2 = 0 | ERBB3 = 0 | [1] 0 | ERN1 = 0 | FGFR1 = 0 | FGFR2 = 0 | FGFR3 = 0 | FGR 0 | FLT3 = 0 | FYN 0 | GSK3A 0 | INSRR 0
active: HER2 = 1

O=C(NC1CCOCC1)c1ccc(-c2cc(-c3c[nH]nc3-c3ccccn3)ccn2)cc1 (10 µM)
inactive: EGFR 0 | EGFR_G719S 0 | EGFR_G719S_T790M 0 | EGFR_L718V 0 | EGFR_L858R 0 | EGFR_L861Q 0 | EGFR_T790M 0 | EPHA2 = 0 | ERBB3 = 0 | [1] 0 | ERN1 = 0 | FGFR1 = 0 | FGFR2 = 0 | FGFR3 = 0 | FGR 0 | FLT3 = 0 | FYN 0 | GSK3A 0 | HER2 = 0 | INSRR 0

CC(=O)c1c(C)c2cnc(Nc3ccc(N4CCN(C(=O)CNc5cccc6c5C(=O)N(C5CCC(=O)NC5=O)C6=O)CC4)cn3)nc2n(C2CCCC2)c1=O (stereo not given) (10 µM)
inactive: EGFR 0 | EGFR_G719S 0 | EGFR_G719S_T790M 0 | EGFR_L718V 0 | EGFR_L858R 0 | EGFR_L861Q 0 | EGFR_T790M 0 | EPHA2 = 0 | ERBB3 = 0 | [1] 0 | ERN1 = 0 | FGFR1 = 0 | FGFR2 = 0 | FGFR3 = 0 | FGR 0 | FLT3 = 0 | FYN 0 | GSK3A 0 | HER2 = 0 | INSRR 0

CN(C)c1nc2c(Br)c(Br)c(Br)c(Br)c2[nH]1 (10 µM)
inactive: EGFR 0 | EGFR_G719S 0 | EGFR_G719S_T790M 0 | EGFR_L718V 0 | EGFR_L858R 0 | EGFR_L861Q 0 | EGFR_T790M 0 | EPHA2 = 0 | ERBB3 = 0 | [1] 0 | ERN1 = 0 | FGFR1 = 0 | FGFR2 = 0 | FGFR3 = 0 | FGR 0 | FLT3 = 0 | FYN 0 | GSK3A 0 | HER2 = 0 | INSRR 0

N#Cc1c2nc3ccccc3nc2n2ccc(NC(=O)c3cccs3)cc12 (10 µM)
inactive: EGFR 0 | EGFR_G719S 0 | EGFR_G719S_T790M 0 | EGFR_L718V 0 | EGFR_L858R 0 | EGFR_L861Q 0 | EGFR_T790M 0 | EPHA2 = 0 | ERBB3 = 0 | [1] 0 | ERN1 = 0 | FGFR1 = 0 | FGFR2 = 0 | FGFR3 = 0 | FGR 0 | FLT3 = 0 | FYN 0 | GSK3A 0 | HER2 = 0 | INSRR 0

C=CCc1ccc(O)c(-c2ccc(O)c(CC=C)c2)c1 [Honokiol] (10 µM)
inactive: EGFR 0 | EGFR_G719S 0 | EGFR_G719S_T790M 0 | EGFR_L718V 0 | EGFR_L858R 0 | EGFR_L861Q 0 | EGFR_T790M 0 | EPHA2 = 0 | ERBB3 = 0 | [1] 0 | ERN1 = 0 | FGFR1 = 0 | FGFR2 = 0 | FGFR3 = 0 | FGR 0 | FLT3 = 0 | FYN 0 | GSK3A 0 | HER2 = 0 | INSRR 0

COc1nn(C)cc1Nc1nccc(-c2c[nH]c3c(NC(=O)[C@@H](C)N4CCN(C)CC4)cccc23)n1 (10 µM)
inactive: EGFR 0 | EGFR_G719S 0 | EGFR_G719S_T790M 0 | EGFR_L718V 0 | EGFR_L858R 0 | EGFR_L861Q 0 | EGFR_T790M 0 | EPHA2 = 0 | ERBB3 = 0 | [1] 0 | ERN1 = 0 | FGFR1 = 0 | FGFR2 = 0 | FGFR3 = 0 | FGR 0 | FLT3 = 0 | FYN 0 | GSK3A 0 | HER2 = 0 | INSRR 0

CN1CC[C@@H](c2c(O)cc(O)c3c(=O)cc(-c4ccc(C(F)(F)F)cc4Cl)oc23)[C@@H]1CO [Voruciclib (hydrochloride)] (10 µM)
inactive: EGFR 0 | EGFR_G719S 0 | EGFR_G719S_T790M 0 | EGFR_L718V 0 | EGFR_L858R 0 | EGFR_L861Q 0 | EGFR_T790M 0 | EPHA2 = 0 | ERBB3 = 0 | [1] 0 | ERN1 = 0 | FGFR1 = 0 | FGFR2 = 0 | FGFR3 = 0 | FGR 0 | FLT3 = 0 | FYN 0 | GSK3A 0 | HER2 = 0 | INSRR 0

CN(C)S(=O)(=O)c1ccc2c(c1)/C(=C/c1cc3c([nH]1)CCCC3)C(=O)N2 (2.5 µM)
inactive: EGFR 0 | EGFR_G719S 0 | EGFR_G719S_T790M 0 | EGFR_L718V 0 | EGFR_L858R 0 | EGFR_L861Q 0 | EGFR_T790M 0 | EPHA2 = 0 | ERBB3 = 0 | [1] 0 | ERN1 = 0 | FGFR1 = 0 | FGFR2 = 0 | FGFR3 = 0 | FGR 0 | FLT3 = 0 | FYN 0 | GSK3A 0 | HER2 = 0 | INSRR 0

COc1cc(/C=C/C(=O)N2CCC=CC2=O)cc(OC)c1OC [Piperlongumine] (2.5 µM)
inactive: EGFR 0 | EGFR_G719S 0 | EGFR_G719S_T790M 0 | EGFR_L718V 0 | EGFR_L858R 0 | EGFR_L861Q 0 | EGFR_T790M 0 | EPHA2 = 0 | ERBB3 = 0 | [1] 0 | ERN1 = 0 | FGFR1 = 0 | FGFR2 = 0 | FGFR3 = 0 | FGR 0 | FLT3 = 0 | FYN 0 | GSK3A 0 | HER2 = 0 | INSRR 0

Source: the supplement of paper PMC12823440, “Inhibitors supercharge kinase turnover through native proteolytic circuits” (Nature, 2025)
